Reference: article PMC8412352

The chains behind the UniProt entries cited, without tags or fusion partners. Where a name states a change or a piece, a line headed by the entry shows the natural chain unless it says otherwise.
UniProt Q9VKI2: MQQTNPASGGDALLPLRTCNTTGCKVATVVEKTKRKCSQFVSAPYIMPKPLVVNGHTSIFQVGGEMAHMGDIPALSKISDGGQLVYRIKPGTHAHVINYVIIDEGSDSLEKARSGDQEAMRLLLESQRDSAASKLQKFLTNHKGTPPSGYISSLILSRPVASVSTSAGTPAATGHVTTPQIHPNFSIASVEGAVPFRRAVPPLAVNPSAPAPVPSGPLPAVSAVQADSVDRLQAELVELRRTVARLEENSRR
UniProt P05205: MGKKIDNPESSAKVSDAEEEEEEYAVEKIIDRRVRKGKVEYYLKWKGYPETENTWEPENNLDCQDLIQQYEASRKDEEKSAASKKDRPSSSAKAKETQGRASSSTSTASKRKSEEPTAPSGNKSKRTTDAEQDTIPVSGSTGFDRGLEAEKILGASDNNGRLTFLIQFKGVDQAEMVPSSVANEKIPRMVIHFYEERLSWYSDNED
UniProt Q7KRX3: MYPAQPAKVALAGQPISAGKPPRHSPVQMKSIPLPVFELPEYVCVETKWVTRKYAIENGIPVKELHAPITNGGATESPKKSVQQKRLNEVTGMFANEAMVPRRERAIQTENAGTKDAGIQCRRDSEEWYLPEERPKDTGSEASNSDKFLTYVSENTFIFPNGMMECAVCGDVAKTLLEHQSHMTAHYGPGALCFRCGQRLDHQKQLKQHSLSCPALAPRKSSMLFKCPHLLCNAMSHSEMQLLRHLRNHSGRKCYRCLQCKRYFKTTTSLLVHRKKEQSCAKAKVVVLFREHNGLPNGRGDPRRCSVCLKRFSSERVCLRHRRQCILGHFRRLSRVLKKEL
UniProt Q9VAC4: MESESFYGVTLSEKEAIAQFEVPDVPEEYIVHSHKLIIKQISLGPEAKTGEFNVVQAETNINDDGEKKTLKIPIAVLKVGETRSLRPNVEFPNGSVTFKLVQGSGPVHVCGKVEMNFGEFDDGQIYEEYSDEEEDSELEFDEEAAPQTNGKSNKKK

T1: nucleoplasmin (NLP) (D. melanogaster (endogenous in SL2)) (UniProt Q27415)
T1 sequence: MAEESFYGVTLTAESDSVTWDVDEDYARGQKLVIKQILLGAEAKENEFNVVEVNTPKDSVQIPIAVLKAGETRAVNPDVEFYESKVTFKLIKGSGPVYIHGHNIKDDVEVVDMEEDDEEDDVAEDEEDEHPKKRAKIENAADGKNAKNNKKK


Key:
[1] = molecular target: FLAG-HA-BOH2 (D. melanogaster) (UniProt Q9VKI2); assay: affinity purification with mass spectrometry; IPs from benzonase-treated SL2 nuclear extracts against mock IPs: HMR (rat anti-HMR 2C10 and 12F1; anti-FLAG M2 for endogenously FLAG-tagged HMR), LHR (12F4), NLP (rabbit anti-NLP), HP1a (C1A9), FLAG-BOH1 and FLAG-BOH2 (anti-FLAG M2); IP buffer 25 mM Hepes pH 7.6, 150 mM NaCl, 12.5 mM MgCl2, 4°C; on-bead digestion
[2] = molecular target: heterochromatin protein 1a (HP1a) (D. melanogaster (endogenous in SL2)) (UniProt P05205); assay: as above
[3] = molecular target: T1, nucleoplasmin (NLP) (D. melanogaster (endogenous in SL2)); assay: as above
[4] = molecular target: FLAG-HA-BOH1 (D. melanogaster) (UniProt Q7KRX3); assay: as above
[5] = molecular target: ectopically expressed C-terminally truncated FLAG-HA-HMR (HMR^dC-tg) (D. melanogaster); assay: affinity purification with mass spectrometry; anti-FLAG M2 IPs of ectopically expressed FLAG-HA-HMR alleles (HMR^wt-tg, HMR^2-tg, HMR^dC-tg) co-expressed with Myc-LHR in SL2 cells (250 uM CuSO4), nuclear extracts, endogenous HMR/LHR present; enrichment normalized to the HMR bait; IP buffer 25 mM Hepes pH 7.6, 150 mM NaCl, 4°C
[6] = molecular target: ectopically expressed wild type FLAG-HA-HMR (HMR^wt-tg) (D. melanogaster); assay: as above
[7] = molecular target: Hybrid male rescue protein (HMR), endogenous (D. melanogaster (endogenous in SL2)); assay: affinity purification with mass spectrometry; IPs from benzonase-treated SL2 nuclear extracts against mock IPs: HMR (rat anti-HMR 2C10 and 12F1; anti-FLAG M2 for endogenously FLAG-tagged HMR), LHR (12F4), NLP (rabbit anti-NLP), HP1a (C1A9), FLAG-BOH1 and FLAG-BOH2 (anti-FLAG M2); IP buffer 25 mM Hepes pH 7.6, 150 mM NaCl, 12.5 mM MgCl2, 4°C; on-bead digestion
[8] = molecular target: Lethal hybrid rescue protein (LHR), endogenous (D. melanogaster (endogenous in SL2)); assay: as above
[9] = molecular target: endogenously FLAG-tagged HMR (HMR^endo) (D. melanogaster (endogenous in SL2)); assay: as above

Row | binding [1] | binding [2] | binding [3] | binding [4] | binding [6] | Molecule | further results
1 | binds | binds | binds | – | – | Buddy Of HMR 1 (BOH1), endogenous (from UniProt Q7KRX3) | –
2 | – | binds | binds | binds | – | Buddy Of HMR 2 (BOH2), endogenous (from UniProt Q9VKI2) | –
3 | – | – | binds | – | – | Hybrid male rescue protein (HMR), endogenous (D. melanogaster (endogenous in SL2)) | –
4 | binds | binds | binds | binds | – | nucleophosmin (NPH) (from UniProt Q9VAC4) | –
5 | – | – | – | – | binds | SU(VAR)3-7 (protein, UniProt P20193 1-1250) MDRDSSMQAKNLDAQCNPDLKMASANSETLASATHELKIMDVEGGALVDPDHIEEVETSMVIVVDDDDGDVAMVVEEDKHPMRDDPCIEDIMDDEHAPLVAELQSALNNPDDKQASEDPLLEDQEREPDAMSTKTEPSSDAESSHSYHDPMGLLERIEIHDPGDSQDDDDEDDESSNGGGVDGGMRRKMPRAQRWLLWMKRWPWILHEDSDGTLAFCLYCNISINVNNRSRHIQQHNVSLSHQERECNYLAFKKSEEETRGAISDNEIKHEFGTKSYVAAMKQKRISETEAFNNFNWLRWLRWHPWLERSMPTGTIGTCRICSVRMNVEFVYLRKRHETTKGHMEALRNLDSDKRSRKRKRSKSNSVTNSGGDEAEREKESEPEVGPEDAQDTPVVMMNGDVDSGDDPGKWCALIPDTNPQQCRCTLCNCTMAITSFLRHCKTRAHCHMLSTPAEKGSSDIRGIWAVFADMHPWLIADPEDPSIGYCSVCRKRFMYGNSEIKRKNHEKSEKHTLALASAKAGIEVGSADGRGGDNMDEEEAAASDQAQSSQTDDSEDNDDDNWSEIQKLGKGFAHKSSSEPRKATVRAGVRFYPWLCYSKDRKTQICKFCRVRFHNEAAKARHELSARHVKLVKQFKMRQAKLHQGTNTQTKHNAQDDEESQEQDEEYGEEEEDAEEDSQSNFDLGTVQARKTARADNKLFVKPIPATMKGKVMVWKGRFPWLSYKKNEQRGNYAWCKLCEVSLYLPSSKWASKHQRTSRHIRLRIDRKRNGGNPLKTSNKNSGEISTVVATASALASAEARQKAAMAELQAKYDWLDPDANDENHCHCRVCDSRLPIKVFYLRQHDASRKHVENKERQRANAAAAANAPSVSPTSTVDAERQESGMDKESENDMSVRSDGSTAEPLAKRSRRSMEVRRIIRALRDSMGKRQEERSQMDMARDMICSSFDIVTRLRTLERESVAHNESMAQAPPSVTVSPIKPPEPRHVMDLFFDSISPTMKSLPPDLAAEGKSKIMQLVCSLELRAMQRNATTPTPATVSASSKWPSSTTVTPVKTPPAPISAPLASVDADLHSSVVTTPHEYNNGQNNNNDKETVPKEPVTGASSAQVTINGSAKDLPENIRRILTSNQTQVTNRLETDSVRCVPLDKLTTQSRTNVNGRLSQGGTSEAPSTPQADLSNGNTLAMIRQIRVNNNNSSKITVTNTPQMQQPQQAQASITSSTPIMRGGPSSNGCQITTFRTMVNHNRRP | binding [5]: binds
6 | – | – | – | – | binds | SU(HW) (protein, UniProt P08970 1-941) MSASKEGKEKKGKLLGVENISPPKDKRPATRMKLLNDVGAGEDSEASTTTTTSRTPSNKQEKRGSVAGSRIKILNEEILGTPKTEKRGATKSTAPAASTVKILNEKKTPSATVTAVETTKIKTSPSKRKKMEHYVLQAVKSENTKADTTVTVVTEEDDTIDFILADDEEVVPGRIENNNGQEIVVTEDDEDLGEDGDEDGEDSSGKGNSSQTKIKEIVEHVCGKCYKTFRRVQSLKKHLEFCRYDSGYHLRKADMLKNLEKIEKDAVVMEKKDICFCCSESYDTFHLGHINCPDCPKSFKTQTSYERHIFITHSEFSDFPCSICNANLRSEALLALHEEQHKSRGKPYACKICGKDFTRSYHLKRHQKYSSCSSNETDTMSCKVCDRVFYRLDNLRSHLKQHLGTQVVKKPEYMCHTCKNCFYSLSTLNIHIRTHTGEKPFDCDLCDKKFSALVALKKHRRYHTGEKPYSCTVCNQAFAVKEVLNRHMKRHTGERPHKCDECGKSFIQATQLRTHSKTHIRPFPCEQCDEKFKTEKQLERHVKTHSRTKRPVFSCAECKRNFRTPALLKEHMDEGKHSPKQQRSSMRSAVKIMERTDCAICDKNFDSSDTLRRHIRTVHECDPDDIFGVEPHPSKRAKKDIESEEVVPVALNTSAGSLISSQTDGNGVVVREFLVDEGDGAAQTITLENETYTILPLDGAIEGEQLTDEAGVKPEAKKEEAQVSPVVKKEQRKSLAASLAAAIADNLEESCSEDDFSGEILTEEDIKLKENVGKLIDMLVDPPILKKYGWPNAPEETVLCKVIENCGHDLTKGGENYAELDYGSRMREYCKLLFTVVIHNDSIKSLLNNFPIDDVIEYVLGDEDQDEGGLDKDNESHSGDEEAVSVTGETKTNEIREKPEKKEVSAKSEKKEIVGKAVDKDNSEEVVRENKKKPVGEQEKA | –
7 | binds | binds | – | binds | binds | nucleoplasmin (NLP) (protein, UniProt Q27415 1-152) MAEESFYGVTLTAESDSVTWDVDEDYARGQKLVIKQILLGAEAKENEFNVVEVNTPKDSVQIPIAVLKAGETRAVNPDVEFYESKVTFKLIKGSGPVYIHGHNIKDDVEVVDMEEDDEEDDVAEDEEDEHPKKRAKIENAADGKNAKNNKKK | binding [5]: binds; binding [7]: binds; binding [8]: binds; binding [9]: binds

Row | Molecule | binding [1] | binding [2] | binding [3] | binding [4] | binding [6] | further results
8 | Lethal hybrid rescue protein (LHR), endogenous (D. melanogaster (endogenous in SL2)) | – | – | binds | – | – | –

Results are given in words; binding and its absence hold for the method and conditions named. In cells and extracts the contact can be indirect. A yes stands for co-enrichment or nearness to the bait. Other partners may have been found.
